Measured values published in PubChem BioAssay AID188 (DTP/NCI, 2004).
Shown are survivors of the treated group in tumour-free mice. Survivors were counted at the toxicity check, usually on the fifth day, unless a day is given; later deaths do not show. Schedules are NCI's codes, read here as Q, the interval in days (D) or hours (H), X, the number of doses. Brackets with × count equal records among those shown. Some entries hold several experiments; the results are listed from low to high.

System: CD2F1 mice, nontumored, toxicity/survival
Test: NCI In Vivo Anticancer Drug Screen. Data for tumor model Nontumored Animals (Toxicity Test) in CD2F1 (CDF1) mice

Question: What does the source list for `N[C@@H](Cc1ccc(N(CCCl)CCCl)cc1)C(=O)O`?
Answer: survivor count (dose: 0.5 mg/kg/injection, schedule: Q04DX003 (ip), vehicle: saline): 5 of 5; survivor count (dose: 1.0 mg/kg/injection, schedule: Q04DX003 (ip), vehicle: saline): 5 of 5; survivor count (dose: 1.2 mg/kg/injection, schedule: Q04DX003 (ip), vehicle: saline): 5 of 5; survivor count (dose: 1.7 mg/kg/injection, schedule: Q04DX003 (ip), vehicle: saline): 8 of 8; survivor count (dose: 1.8 mg/kg/injection, schedule: Q04DX003 (ip), vehicle: saline): 5 of 5; survivor count (dose: 2.0 mg/kg/injection, schedule: Q04DX003 (ip), vehicle: saline): 5 of 5; survivor count (dose: 2.4 mg/kg/injection, schedule: Q04DX003 (ip), vehicle: saline): 5 of 5; survivor count (dose: 2.5 mg/kg/injection, schedule: Q04DX003 (ip), vehicle: saline): 8 of 8; survivor count (dose: 2.7 mg/kg/injection, schedule: Q04DX003 (ip), vehicle: saline): 5 of 5; survivor count (dose: 3.6 mg/kg/injection, schedule: Q01DX005 (ip), vehicle: saline): 10 of 10; survivor count (dose: 3.6 mg/kg/injection, schedule: Q04DX003 (ip), vehicle: saline): 5 of 5; survivor count (dose: 3.7 mg/kg/injection, schedule: Q04DX003 (ip), vehicle: saline): 8 of 8; survivor count (dose: 4.0 mg/kg/injection, schedule: Q04DX003 (ip), vehicle: saline): 5 of 5; survivor count (dose: 5.3 mg/kg/injection, schedule: Q04DX003 (ip), vehicle: saline): 5 of 5; survivor count (dose: 5.4 mg/kg/injection, schedule: Q01DX005 (ip), vehicle: saline): 10 of 10; survivor count (dose: 5.6 mg/kg/injection, schedule: Q04DX003 (ip), vehicle: saline): 8 of 8; survivor count (dose: 6.0 mg/kg/injection, schedule: Q04DX003 (ip), vehicle: saline): 5 of 5; survivor count (dose: 8.0 mg/kg/injection, schedule: Q01DX005 (ip), vehicle: saline): 9 of 9; survivor count (dose: 8.0 mg/kg/injection, schedule: Q04DX003 (ip), vehicle: saline): 5 of 5; survivor count (dose: 8.4 mg/kg/injection, schedule: Q04DX003 (ip), vehicle: saline): 8 of 8; survivor count (dose: 10.0 mg/kg/injection, schedule: Q01DX001 (ip), vehicle: acid diluted with saline): 10 of 10; survivor count (dose: 10.0 mg/kg/injection, schedule: Q01DX001 (ip), vehicle: saline): 9 of 10 and 10 of 10 (2×); survivor count (dose: 12.0 mg/kg/injection, schedule: Q01DX005 (ip), vehicle: saline): 10 of 10; survivor count (dose: 12.0 mg/kg/injection, schedule: Q04DX003 (ip), vehicle: saline): 5 of 5; survivor count (dose: 12.6 mg/kg/injection, schedule: Q04DX003 (ip), vehicle: saline): 8 of 8; survivor count (dose: 15.0 mg/kg/injection, schedule: Q01DX001 (ip), vehicle: acid diluted with saline): 9 of 10; survivor count (dose: 15.0 mg/kg/injection, schedule: Q01DX001 (ip), vehicle: saline): 10 of 10 (2×) and 8 of 8; survivor count (dose: 18.9 mg/kg/injection, schedule: Q04DX003 (ip), vehicle: saline): 8 of 8; survivor count (dose: 20.0 mg/kg/injection, schedule: Q01DX001 (ip), vehicle: acid diluted with saline): 9 of 9; survivor count (dose: 20.0 mg/kg/injection, schedule: Q01DX001 (ip), vehicle: saline): 10 of 10 (2×); survivor count (dose: 22.5 mg/kg/injection, schedule: Q01DX001 (ip), vehicle: saline): 10 of 10

Question: What does the source list for `Cc1ccc(S(=O)(=O)N/N=C/C(=O)O)cc1`?
Answer: survivor count (dose: 1.0 mg/kg/injection, schedule: Q03HX024 (ip), vehicle: saline): 8 of 8; survivor count (dose: 2.0 mg/kg/injection, schedule: Q03HX016 (ip), vehicle: saline): 8 of 8; survivor count (dose: 2.0 mg/kg/injection, schedule: Q03HX024 (ip), vehicle: saline): 8 of 8; survivor count (dose: 4.0 mg/kg/injection, schedule: Q03HX008 (ip), vehicle: saline): 8 of 8; survivor count (dose: 4.0 mg/kg/injection, schedule: Q03HX016 (ip), vehicle: saline): 8 of 8; survivor count (dose: 4.0 mg/kg/injection, schedule: Q03HX024 (ip), vehicle: saline): 8 of 8; survivor count (dose: 8.0 mg/kg/injection, schedule: Q01DX009 (ip), vehicle: saline): 8 of 8; survivor count (dose: 8.0 mg/kg/injection, schedule: Q01DX009 (sc), vehicle: saline): 8 of 8; survivor count (dose: 8.0 mg/kg/injection, schedule: Q03HX008 (ip), vehicle: saline): 8 of 8; survivor count (dose: 8.0 mg/kg/injection, schedule: Q03HX016 (ip), vehicle: saline): 8 of 8; survivor count (dose: 8.0 mg/kg/injection, schedule: Q03HX024 (ip), vehicle: saline): 8 of 8; survivor count (dose: 16.0 mg/kg/injection, schedule: Q01DX009 (ip), vehicle: saline): 8 of 8; survivor count (dose: 16.0 mg/kg/injection, schedule: Q01DX009 (oral), vehicle: saline): 8 of 8; survivor count (dose: 16.0 mg/kg/injection, schedule: Q01DX009 (sc), vehicle: saline): 8 of 8; survivor count (dose: 16.0 mg/kg/injection, schedule: Q03HX008 (ip), vehicle: saline): 8 of 8; survivor count (dose: 16.0 mg/kg/injection, schedule: Q03HX016 (ip), vehicle: saline): 7 of 8; survivor count (dose: 16.0 mg/kg/injection, schedule: Q03HX024 (ip), vehicle: saline): 8 of 8; survivor count (dose: 16.0 mg/kg/injection, schedule: Q04DX003 (ip), vehicle: saline): 8 of 8; survivor count (dose: 16.0 mg/kg/injection, schedule: Q08DX002 (ip), vehicle: saline): 8 of 8; survivor count (dose: 32.0 mg/kg/injection, schedule: Q01DX001 (ip), vehicle: saline): 8 of 8; survivor count (dose: 32.0 mg/kg/injection, schedule: Q01DX001 (sc), vehicle: saline): 8 of 8; survivor count (dose: 32.0 mg/kg/injection, schedule: Q01DX009 (ip), vehicle: saline): 8 of 8; survivor count (dose: 32.0 mg/kg/injection, schedule: Q01DX009 (oral), vehicle: saline): 8 of 8; survivor count (dose: 32.0 mg/kg/injection, schedule: Q01DX009 (sc), vehicle: saline): 8 of 8; survivor count (dose: 32.0 mg/kg/injection, schedule: Q03HX008 (ip), vehicle: saline): 8 of 8; survivor count (dose: 32.0 mg/kg/injection, schedule: Q03HX016 (ip), vehicle: saline): 8 of 8; survivor count (dose: 32.0 mg/kg/injection, schedule: Q03HX024 (ip), vehicle: saline): 8 of 8; survivor count (dose: 32.0 mg/kg/injection, schedule: Q04DX003 (ip), vehicle: saline): 8 of 8; survivor count (dose: 32.0 mg/kg/injection, schedule: Q08DX002 (ip), vehicle: saline): 8 of 8; survivor count (dose: 64.0 mg/kg/injection, schedule: Q01DX001 (ip), vehicle: saline): 8 of 8; survivor count (dose: 64.0 mg/kg/injection, schedule: Q01DX001 (sc), vehicle: saline): 8 of 8; survivor count (dose: 64.0 mg/kg/injection, schedule: Q01DX009 (ip), vehicle: saline): 8 of 8; survivor count (dose: 64.0 mg/kg/injection, schedule: Q01DX009 (oral), vehicle: saline): 8 of 8; survivor count (dose: 64.0 mg/kg/injection, schedule: Q01DX009 (sc), vehicle: saline): 8 of 8; survivor count (dose: 64.0 mg/kg/injection, schedule: Q03HX008 (ip), vehicle: saline): 7 of 8; survivor count (dose: 64.0 mg/kg/injection, schedule: Q03HX016 (ip), vehicle: saline): 8 of 8; survivor count (dose: 64.0 mg/kg/injection, schedule: Q04DX003 (ip), vehicle: saline): 8 of 8; survivor count (dose: 64.0 mg/kg/injection, schedule: Q08DX002 (ip), vehicle: saline): 8 of 8; survivor count (dose: 128.0 mg/kg/injection, schedule: Q01DX001 (ip), vehicle: saline): 8 of 8; survivor count (dose: 128.0 mg/kg/injection, schedule: Q01DX001 (oral), vehicle: saline): 8 of 8; survivor count (dose: 128.0 mg/kg/injection, schedule: Q01DX001 (sc), vehicle: saline): 8 of 8; survivor count (dose: 128.0 mg/kg/injection, schedule: Q01DX009 (ip), vehicle: saline): 7 of 8; survivor count (dose: 128.0 mg/kg/injection, schedule: Q01DX009 (oral), vehicle: saline): 8 of 8; survivor count (dose: 128.0 mg/kg/injection, schedule: Q01DX009 (sc), vehicle: saline): 8 of 8; survivor count (dose: 128.0 mg/kg/injection, schedule: Q04DX003 (ip), vehicle: saline): 8 of 8; survivor count (dose: 128.0 mg/kg/injection, schedule: Q08DX002 (ip), vehicle: saline): 8 of 8; survivor count (dose: 256.0 mg/kg/injection, schedule: Q01DX001 (ip), vehicle: saline): 8 of 8; survivor count (dose: 256.0 mg/kg/injection, schedule: Q01DX001 (oral), vehicle: saline): 8 of 8; survivor count (dose: 256.0 mg/kg/injection, schedule: Q01DX001 (sc), vehicle: saline): 8 of 8; survivor count (dose: 256.0 mg/kg/injection, schedule: Q01DX009 (oral), vehicle: saline): 8 of 8; survivor count (dose: 256.0 mg/kg/injection, schedule: Q04DX003 (ip), vehicle: saline): 8 of 8; survivor count (dose: 256.0 mg/kg/injection, schedule: Q08DX002 (ip), vehicle: saline): 8 of 8; survivor count (dose: 512.0 mg/kg/injection, schedule: Q01DX001 (ip), vehicle: saline): 8 of 8; survivor count (dose: 512.0 mg/kg/injection, schedule: Q01DX001 (oral), vehicle: saline): 8 of 8; survivor count (dose: 512.0 mg/kg/injection, schedule: Q01DX001 (sc), vehicle: saline): 7 of 8; survivor count (dose: 512.0 mg/kg/injection, schedule: Q01DX009 (oral), vehicle: saline): 8 of 8; survivor count (dose: 512.0 mg/kg/injection, schedule: Q08DX002 (ip), vehicle: saline): 8 of 8; survivor count (dose: 1024.0 mg/kg/injection, schedule: Q01DX001 (oral), vehicle: saline): 7 of 8; survivor count (dose: 2048.0 mg/kg/injection, schedule: Q01DX001 (oral), vehicle: saline): 7 of 8

Question: Which results are given for `Nc1nc2c(c(=O)[nH]1)N=C(CCc1ccccc1)CO2`?
Answer: survivor count (dose: 1.0 mg/kg/injection, schedule: Q01DX001 (ip), vehicle: other): 2 of 2; survivor count (dose: 10.0 mg/kg/injection, schedule: Q01DX001 (ip), vehicle: other): 2 of 2; survivor count (dose: 100.0 mg/kg/injection, schedule: Q01DX001 (ip), vehicle: other): 2 of 2
